The other results are listed elsewhere or left out. The main result of the screen is listed elsewhere. These columns were measured beside it and carry no call. Compounds called inactive in the main read-out are mostly missing here. The note in brackets gives the kind of curve behind each potency; many fits are weak.

This experiment in a line: qHTS Assay for Modulators of Lamin A Splicing. The following applies: HeLa LMNA splicing GFP/RFP minigene ratio, 48 h. The essentials: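 S3 HeLa stable clones carrying a lamin A-EGFP splicing minigene plus DsRed2 were seeded at 600 cells/well in Opti-MEM with 2% FBS, pin-dosed and incubated 48 h at 37°C. Acumen cytometry (488 nm) gave the GFP/RFP total-intensity ratio.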
(In general: In qHTS, concentration-response curves come from the screen itself.)

Setting [1] is: measured here: GFP splicing reporter channel.
[2] abbreviates: measured here: RFP viability control channel.

Take `COc1ccc(CCC(=O)NCCc2csc(-c3ccc(F)cc3)n2)cc1`: the AC50 by setting is: under setting [1], 1.78 µM [falling, full curve]; under setting [2], 1.12 µM [falling, full curve, poor fit]. Turning to `CCCCN(CCCC)S(=O)(=O)c1ccc(C(=O)Nc2nnc(CSC)o2)cc1`, the AC50 is, setting by setting: under setting [1], 5.01 µM [falling, partial curve]; under setting [2], 17.8 µM [falling, partial curve].

Turning to `CC(C)(C#CCN1CCCCC1)OCCOC(c1ccccc1)c1ccccc1`, the AC50 under setting [2] was 12.6 µM [rising, partial curve]. Take `CCCCN1CNC(=S)N(c2ccccc2OCC)C1`: the concentration at half-maximal activity (AC50) under setting [2] was 2.51 µM [rising, partial curve, poor fit]. Consider `Cc1ccc(-n2c(-c3cnccn3)n[nH]c2=S)cc1`, for which the AC50 under setting [1] was 8.91 µM [rising, partial curve, poor fit]. In the case of `Cn1nnnc1SCC(=O)N(C1CCCCC1)C1CCCCC1`, the AC50 under setting [1] is 22.4 µM [rising, single point] and the AC50 under setting [2] is 12.6 µM [rising, single point].

For the compound `O=C(CSCc1ccc(F)cc1)N1CCN(c2ccccc2F)CC1`, the AC50 was 35.5 µM [falling, partial curve, poor fit] under setting [1] and 50.1 µM [falling, partial curve, poor fit] under setting [2]. Turning to `Cn1cccc1Cc1nnc(SCC(=O)Nc2ccc3c(c2)OCCO3)n1-c1ccc(F)cc1`, under setting [2], the concentration at half-maximal activity (AC50) was 35.5 µM [rising, single point].

Take `CC1(C)O[C@H]2C[C@@H]3[C@H]4CCC5=CC(=O)C=C[C@]5(C)[C@@]4(F)[C@@H](O)C[C@]3(C)[C@]2(C(=O)CO)O1`: the AC50 under setting [2] was 0.0501 µM [falling, full curve, poor fit]. In the case of `CCOC(=O)c1cc(C)sc1/N=C/C1=C(O)CCCC1=O`, the concentration at half-maximal activity (AC50) under setting [2] is 3.98 µM [rising, single point]. As to `COc1ccc(C(=O)NC(=S)Nc2ccccc2N2CCOCC2)cc1Br`, the AC50 runs as follows: under setting [1], 12.6 µM [rising, single point]; under setting [2], 28.2 µM [rising, single point]. Regarding `CCn1cc(C(=O)NCc2ccc3c(c2)OCO3)c(=O)c2cc(F)c(N3CCN(C)CC3)cc21`, the AC50 under setting [2] was 15.8 µM [rising, single point]. Regarding `Cc1nn(Cc2ccc(Cl)cc2Cl)c(C)c1NC(=O)CCl`, under setting [2], the concentration at half-maximal activity (AC50) was 35.5 µM [falling, single point]. As for `CCCn1c(SCC(=O)N2CCN(c3ccc(OC)cc3)CC2)nc2c1c(=O)n(C)c(=O)n2C`, the AC50 is, setting by setting: under setting [1], 1.58 µM [rising, partial curve, poor fit]; under setting [2], 11.2 µM [rising, partial curve, poor fit]. As to `COc1ccc(CCNC(=O)COc2ncnc3ccccc23)cc1OC`, the concentration at half-maximal activity (AC50) under setting [1] is 5.62 µM [falling, partial curve] and the AC50 under setting [2] is 0.01 µM [falling, full curve, poor fit]. On to `COc1cc(C)ccc1OCCSc1nc2ccc(NC(=O)c3ccco3)cc2s1`, for which the AC50 is, setting by setting: under setting [1], 14.1 µM [falling, single point]; under setting [2], 0.0224 µM [falling, full curve, poor fit]. Take `O=C(CN(c1ccccn1)S(=O)(=O)c1ccc(F)cc1)Nc1ccc(F)cc1F`: the AC50 under setting [2] was 6.31 µM [falling, single point]. Same read-out and setting: in the case of `COc1ccc(/C=C2\SC(=O)N(CCNC(=O)C3CCN(S(=O)(=O)c4cccs4)CC3)C2=O)cc1` it was 35.5 µM [rising, single point]. For the compound `COC(=O)CCC(=O)OC1(C)C(=O)C2=CN(Cc3ccc4c(c3)OCO4)C(c3ccc(OC)cc3)=CC2=C(Br)C1=O` (stereo not drawn), the AC50 by setting is: under setting [1], 0.158 µM [falling, single point]; under setting [2], 0.158 µM [falling, single point]. Turning to `COC(=O)c1sc(N)c(C(=O)OC)c1COC(=O)[C@@H](NS(=O)(=O)c1cccc(Cl)c1)C(C)C`, the half-maximal activity concentration (AC50) under setting [2] was 14.1 µM [rising, single point]. Same read-out and setting: to `COc1cccc(NC(=O)Cn2nnc(C(=O)NCc3cccs3)c2N)c1` belongs 1.26 µM [falling, full curve]. On the same count and under the same terms, to `CCCSC1=C(C#N)C(c2ccc(OC)cc2)C2=C(CC(C)(C)CC2=O)N1` (stereo not drawn) belongs 35.5 µM [rising, single point]. Take `CC1CCc2c(sc(NC(=O)Cn3nc(C(F)(F)F)c4c3CCCCC4)c2C#N)C1` (stereo not drawn): the AC50 was 15.8 µM [falling, single point] under setting [1] and 22.4 µM [falling, single point] under setting [2]. In the case of `Cc1cc(C(=O)NNC(=O)Nc2cccc(C(F)(F)F)c2)no1`, under setting [1], the AC50 is 2.51 µM [rising, partial curve]. With `Cc1nnc(N/N=C/c2cc([N+](=O)[O-])c(N3CCC(C)CC3)cc2N2CCC(C)CC2)n1N`, the half-maximal activity concentration (AC50) under setting [1] is 12.6 µM [rising, single point].

Consider `c1ccc2c(c1)CCN(C1=Nc3cccc4cccc1c34)C2`, for which the AC50 runs as follows: under setting [1], 12.6 µM [falling, partial curve, poor fit]; under setting [2], 12.6 µM [rising, single point].

Turning to `Cc1ccc(S(=O)(=O)NNC(=O)C(=O)NNc2ccccn2)cc1`, the concentration at half-maximal activity (AC50) is 31.6 µM [rising, single point] under setting [1] and 35.5 µM [rising, single point] under setting [2]. With `N/C(=N\OC(=O)c1cc(-c2ccccc2)nc2ccccc12)c1ccncc1`, the half-maximal activity concentration (AC50) reads like this: under setting [1], 35.5 µM [falling, single point]; under setting [2], 25.1 µM [falling, single point].

In the case of `Cc1cc(C)n(-c2ccc(C(=O)Nc3cccc(S(=O)(=O)N(C)C)c3)cc2)n1`, the concentration at half-maximal activity (AC50) under setting [2] was 3.98 µM [rising, partial curve]. The same measure, in the same setting: in the case of `O=C(CS(=O)(=O)c1c[nH]c2ccccc12)N1CCCc2ccccc21` it was 22.4 µM [rising, partial curve, poor fit]. Same read-out and setting: in the case of `CCCCC1(O)CC(C(F)(F)F)=NN1C(=O)COc1ccccc1` (stereo not drawn) it was 12.6 µM [rising, partial curve]. `Cc1ccc(S(=O)(=O)NCc2ccc(C(=O)N3CCc4ccccc4C3)cc2)cc1`: the AC50 was 17.8 µM [rising, single point] under setting [1] and 22.4 µM [rising, partial curve] under setting [2].

For `CCN(CC)C(=O)Cn1c(=O)cc(C)c2c(C)nn(-c3cccc(Cl)c3C)c21`, the half-maximal activity concentration (AC50) is, setting by setting: under setting [1], 0.0112 µM [falling, full curve]; under setting [2], 0.0224 µM [falling, partial curve, poor fit].

By AC50 is commonly meant the midpoint of the concentration-response curve, whichever way the signal moves.

Source of the values: PubChem BioAssay AID1487 (National Center for Advancing Translational Sciences (NCATS), 2009).
